Assay results: article PMC11998485
Results are given in words; binding and its absence hold for the method and conditions named. In cells and extracts the contact can be indirect. Some entries that bind do so weakly or less than the wild type.

Protein sequences, listed by entry. Tags and fused reporters are not part of them.
UniProt P10240: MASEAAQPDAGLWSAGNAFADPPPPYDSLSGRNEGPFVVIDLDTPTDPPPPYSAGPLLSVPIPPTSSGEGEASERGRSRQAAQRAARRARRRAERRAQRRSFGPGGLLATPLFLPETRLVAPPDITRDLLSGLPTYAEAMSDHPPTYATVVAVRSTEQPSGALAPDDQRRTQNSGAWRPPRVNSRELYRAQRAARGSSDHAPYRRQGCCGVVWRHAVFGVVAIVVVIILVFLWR
UniProt Q96PU5: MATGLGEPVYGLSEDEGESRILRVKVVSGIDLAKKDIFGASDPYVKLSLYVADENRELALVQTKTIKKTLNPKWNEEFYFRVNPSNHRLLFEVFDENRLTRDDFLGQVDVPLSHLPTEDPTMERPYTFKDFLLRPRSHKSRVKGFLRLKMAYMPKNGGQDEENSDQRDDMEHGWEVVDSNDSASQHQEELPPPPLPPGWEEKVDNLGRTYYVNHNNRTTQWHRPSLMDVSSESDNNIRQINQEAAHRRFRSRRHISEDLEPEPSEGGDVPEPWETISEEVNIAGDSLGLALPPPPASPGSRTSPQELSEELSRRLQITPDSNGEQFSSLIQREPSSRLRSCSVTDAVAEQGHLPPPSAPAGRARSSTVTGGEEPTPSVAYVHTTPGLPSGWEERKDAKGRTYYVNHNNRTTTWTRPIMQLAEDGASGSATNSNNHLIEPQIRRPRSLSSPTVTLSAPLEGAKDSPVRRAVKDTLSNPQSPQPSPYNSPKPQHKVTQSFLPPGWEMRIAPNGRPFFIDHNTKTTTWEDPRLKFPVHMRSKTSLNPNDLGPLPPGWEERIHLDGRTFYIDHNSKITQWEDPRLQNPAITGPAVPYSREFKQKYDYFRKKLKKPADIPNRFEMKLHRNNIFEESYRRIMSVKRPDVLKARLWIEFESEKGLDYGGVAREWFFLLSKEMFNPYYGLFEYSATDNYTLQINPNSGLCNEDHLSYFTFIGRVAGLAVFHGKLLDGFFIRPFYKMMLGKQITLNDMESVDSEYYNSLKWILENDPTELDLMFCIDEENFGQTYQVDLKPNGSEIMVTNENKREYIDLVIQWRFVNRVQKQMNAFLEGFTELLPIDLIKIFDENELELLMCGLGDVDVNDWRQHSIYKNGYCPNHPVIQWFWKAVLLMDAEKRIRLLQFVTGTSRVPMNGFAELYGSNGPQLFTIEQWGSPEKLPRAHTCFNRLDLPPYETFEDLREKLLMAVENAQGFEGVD
UniProt P46934: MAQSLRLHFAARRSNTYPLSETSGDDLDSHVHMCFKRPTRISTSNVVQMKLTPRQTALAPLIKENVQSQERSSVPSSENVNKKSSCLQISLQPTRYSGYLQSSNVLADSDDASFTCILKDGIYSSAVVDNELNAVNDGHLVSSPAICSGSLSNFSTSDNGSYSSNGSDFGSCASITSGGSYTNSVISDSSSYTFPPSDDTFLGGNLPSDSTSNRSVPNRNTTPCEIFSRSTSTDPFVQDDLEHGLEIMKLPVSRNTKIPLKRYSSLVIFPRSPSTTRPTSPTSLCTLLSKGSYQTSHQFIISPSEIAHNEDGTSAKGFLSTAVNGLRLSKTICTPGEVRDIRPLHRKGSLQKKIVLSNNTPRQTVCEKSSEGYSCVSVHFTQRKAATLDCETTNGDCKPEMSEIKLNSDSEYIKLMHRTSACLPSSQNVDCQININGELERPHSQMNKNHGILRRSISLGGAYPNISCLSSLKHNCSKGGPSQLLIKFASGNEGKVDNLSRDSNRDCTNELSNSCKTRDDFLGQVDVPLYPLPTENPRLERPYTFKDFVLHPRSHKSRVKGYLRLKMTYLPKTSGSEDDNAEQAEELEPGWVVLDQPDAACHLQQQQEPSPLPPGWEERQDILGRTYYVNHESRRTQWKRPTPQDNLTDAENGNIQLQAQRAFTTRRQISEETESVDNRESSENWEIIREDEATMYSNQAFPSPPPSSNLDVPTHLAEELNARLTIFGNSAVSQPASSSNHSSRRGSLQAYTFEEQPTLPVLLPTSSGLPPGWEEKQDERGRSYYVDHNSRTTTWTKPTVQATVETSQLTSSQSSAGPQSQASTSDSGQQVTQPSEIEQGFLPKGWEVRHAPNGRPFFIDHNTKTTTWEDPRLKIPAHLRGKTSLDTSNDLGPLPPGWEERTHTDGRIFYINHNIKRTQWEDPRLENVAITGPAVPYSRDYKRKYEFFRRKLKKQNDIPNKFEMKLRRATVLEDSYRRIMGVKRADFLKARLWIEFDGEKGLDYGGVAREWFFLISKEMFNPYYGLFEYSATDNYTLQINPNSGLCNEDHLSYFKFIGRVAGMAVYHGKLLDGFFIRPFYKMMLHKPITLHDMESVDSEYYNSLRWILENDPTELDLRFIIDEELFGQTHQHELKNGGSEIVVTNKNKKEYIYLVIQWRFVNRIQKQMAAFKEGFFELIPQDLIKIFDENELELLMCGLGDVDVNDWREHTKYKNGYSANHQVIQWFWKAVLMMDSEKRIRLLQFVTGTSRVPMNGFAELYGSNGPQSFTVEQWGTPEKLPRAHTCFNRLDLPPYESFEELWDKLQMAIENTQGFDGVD

Assays:
[1] = biological target: HSV-1 UL56 protein (HSV-1) (UniProt P10240); experiment: co-IP; 293T.CD1d cells transfected with UL56 and FLAG-tagged NEDD4 or NEDD4L, alone or in combination; IP with anti-UL56 and blot with anti-FLAG; reciprocal IP with anti-FLAG and blot with anti-UL56
FLAG-tagged NEDD4L = FLAG-tagged NEDD4L (UniProt Q96PU5); experiment: as above
[2] = biological target: endogenous NEDD4L protein (human (endogenous in HeLa.CD1d)) (UniProt Q96PU5); experiment: co-IP; HeLa.CD1d cells infected with HSV-1 KOS strain at m.o.i. of 5 for 24 hours; IP of UL56 or of endogenous NEDD4L, blot for the counterpart; normal rabbit serum as control

FLAG-tagged NEDD4 (from UniProt P46934 1-1319) (enzyme)
binding [1]: binds

HSV-1 UL56 protein (from UniProt P10240 1-234)
binding (FLAG-tagged NEDD4L): binds

HSV-1 UL56 protein (KOS strain, in infected cells) (from UniProt P10240 1-234)
binding [2]: binds
